No constants are given. Whether binding was seen depends on the method and setting. In cells and extracts the contact can be indirect. Some binding calls cover weakened binding; strength is not graded here. Sequences can lack the tags named with a protein.
Target: T1, B4GALT1-HA (beta-1,4-galactosyltransferase 1, HA-tagged) (UniProt P15291)
T1 sequence: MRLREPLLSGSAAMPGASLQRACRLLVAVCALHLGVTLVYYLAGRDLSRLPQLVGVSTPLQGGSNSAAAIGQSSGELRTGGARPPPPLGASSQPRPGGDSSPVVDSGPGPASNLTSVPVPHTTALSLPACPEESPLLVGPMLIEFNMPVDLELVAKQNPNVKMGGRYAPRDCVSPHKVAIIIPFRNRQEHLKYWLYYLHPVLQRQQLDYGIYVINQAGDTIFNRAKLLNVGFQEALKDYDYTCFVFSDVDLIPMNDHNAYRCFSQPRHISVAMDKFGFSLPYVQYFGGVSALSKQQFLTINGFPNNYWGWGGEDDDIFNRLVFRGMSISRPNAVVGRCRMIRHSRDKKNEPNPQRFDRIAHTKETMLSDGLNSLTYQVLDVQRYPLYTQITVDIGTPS
Test: co-IP; A549 cells transfected with B4GALT1-HA and PD-L1-Flag or TAZ-Flag for 24 h; lysates incubated with DDDDK-Tag mAb or anti-HA-Tag mAb at room temperature for 2 h, Protein A/G magnetic beads at 4 °C overnight; western blot

Chains of the proteins cited; added tags and fusions are not shown. Residues count along the entry.
UniProt Q9NZQ7, residues 19-290: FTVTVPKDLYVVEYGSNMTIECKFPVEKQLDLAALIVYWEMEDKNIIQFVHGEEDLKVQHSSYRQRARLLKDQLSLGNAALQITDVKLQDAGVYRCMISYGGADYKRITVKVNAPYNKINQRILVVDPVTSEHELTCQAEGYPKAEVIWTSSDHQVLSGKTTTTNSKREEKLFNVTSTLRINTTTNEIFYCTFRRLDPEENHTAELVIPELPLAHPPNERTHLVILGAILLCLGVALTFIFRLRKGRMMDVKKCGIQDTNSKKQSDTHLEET
UniProt Q9GZV5: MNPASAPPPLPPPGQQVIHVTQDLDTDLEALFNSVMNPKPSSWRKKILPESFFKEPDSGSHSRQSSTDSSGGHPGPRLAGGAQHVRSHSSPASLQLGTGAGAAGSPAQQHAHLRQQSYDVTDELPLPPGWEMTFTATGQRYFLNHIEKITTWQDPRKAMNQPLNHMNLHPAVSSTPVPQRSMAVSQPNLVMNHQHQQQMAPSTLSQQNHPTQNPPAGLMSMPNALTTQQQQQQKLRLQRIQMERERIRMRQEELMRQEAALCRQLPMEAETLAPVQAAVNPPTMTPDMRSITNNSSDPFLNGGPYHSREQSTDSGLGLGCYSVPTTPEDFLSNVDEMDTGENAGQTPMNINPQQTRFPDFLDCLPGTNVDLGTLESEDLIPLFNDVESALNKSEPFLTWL

Row | Substance | binding
1 | PD-L1-Flag (programmed cell death ligand 1, Flag-tagged) (from UniProt Q9NZQ7 19-290) | binds
2 | TAZ-Flag (WW domain-containing transcription regulator 1, Flag-tagged) (from UniProt Q9GZV5 1-400) | binds
